This is an account of results in PMC5379978.

These are yes or no findings as the source states them, for the method shown. In cells and extracts the contact can be indirect. Some binding calls cover weakened binding; strength is not graded here. Where a sequence is shown, tags or fusion partners need not be part of it.

The test has as its target T1, Eros (essential for reactive oxygen species), N-terminally FLAG-tagged (mouse) (UniProt Q3TYS2).
T1 sequence: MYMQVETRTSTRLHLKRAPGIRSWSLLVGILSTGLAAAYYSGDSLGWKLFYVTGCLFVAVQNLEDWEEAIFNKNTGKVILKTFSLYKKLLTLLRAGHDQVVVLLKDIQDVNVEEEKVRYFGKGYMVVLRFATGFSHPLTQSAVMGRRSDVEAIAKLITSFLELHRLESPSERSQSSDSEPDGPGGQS
The experiment in a line: co-IP; RAW macrophages expressing Eros-FLAG lysed in 0.1% NP-40, 150 mM NaCl; extracts incubated with anti-FLAG M2 coupled to Protein G magnetic beads, 90 min, 4°C; control antibody in parallel; blot for gp91phox.

B1: gp91phox (protein, UniProt Q61093 1-570)
chain: MGNWAVNEGLSIFVILVWLGLNVFLFINYYKVYDDGPKYNYTRKLLGSALALARAPAACLNFNCMLILLPVCRNLLSFLRGSSACCSTRIRRQLDRNLTFHKMVAWMIALHTAIHTIAHLFNVEWCVNARVGISDRYSIALSDIGDNENEEYLNFAREKIKNPEGGLYVAVTRLAGITGIVITLCLILIITSSTKTIRRSYFEVFWYTHHLFVIFFIGLAIHGAERIVRGQTAESLEEHNLDICADKIEEWGKIKECPVPKFAGNPPMTWKWIVGPMFLYLCERLVRFWRSQQKVVITKVVTHPFKTIELQMKKKGFKMEVGQYIFVKCPKVSKLEWHPFTLTSAPEEDFFSIHIRIVGDWTEGLFNACGCDKQEFQDAWKLPKIAVDGPFGTASEDVFSYEVVMLVGAGIGVTPFASILKSVWYKYCDNATSLKLKKIYFYWLCRDTHAFEWFADLLQLLETQMQERNNANFLSYNIYLTGWDESQANHFAVHHDEEKDVITGLKQKTLYGRPNWDNEFKTIASEHPNTTIGVFLCGPEALAETLSKQSISNSESGPRGVHFIFNKENF
In the case of B1, the binding entry is “binds”.
